Some of these results come from one statement about several compounds together.
What was measured:
[1] = tested on: human poly-IgG (h-poly-IgG); assay: Microtiter plate chromatography of resins, human poly-IgG (bound, yield); assay type: binding; details: whole IgG 0.75 mg ml^-1 in PBS, pH 7.3
Protocol: (§1) Resins were assessed in packed mode by microtiter plate chromatography. For each column, approximately 30 μl of resin were transferred to a 384-well filter plate and sealed with appropriate top frits.
(§2) Columns were equilibrated with 6.7 column volumes (cv) of phosphate buffered saline (0.15 M NaCl, 20 mM sodium phosphate, pH 7.3; PBS) prior to injection. Either 3.3 cv of whole IgGs dissolved at 0.75 mg ml^−1, Fab or Fc fragments dissolved at 0.25 mg ml^−1 (all three in PBS) or host cell proteins (HCP) were injected onto columns. Antibody fragments of Bevacizumab (Fab and Fc) were prepared by cleavage of whole IgG with papain protease (3) according to the protocol of the manufacturer. […] Volumes transferred were spun through columns at 50 g for 1-2 min. During injection of samples, acceleration was reduced to 10 g and centrifugation time increased to 5-10 min. Effluent fractions were collected in 384-well plates and concentrations of protein analyzed by Bradford assay. Protein masses mi, mft and me (see below) were calculated as the product of fraction volume and measured protein concentration.
(§3) The fraction of ‘bound’ protein was calculated as the difference between the total mass of protein injected mi and the mass of protein detected in the flowthrough mft, divided by the total mass of protein injected.
(§4) The ‘yield’ of protein was calculated as the mass of protein eluted me, divided by the mass of protein injected mi.
(§5) the fraction of ‘bound’ protein and the ‘yield’ of protein were calculated for each resin based on data for whole IgG-antibodies. In the case of Bevacizumab fragments and host cell proteins, only the fraction of ‘bound’ protein is given. Selectivity of resins was calculated from data for Bevacizumab Whole IgG and host cell proteins. Due to limited experimental precision, selectivity was truncated beyond values of 10.

Tocilizumab = assay: Microtiter plate chromatography of resins, Tocilizumab (bound, yield); assay type: binding, humanized; details: whole IgG 0.75 mg ml^-1 in PBS, pH 7.3
Protocol: as §1, §2, §3, §4, §5

SMILES | fraction of bound human poly-IgG [1] | fraction of bound Tocilizumab (Tocilizumab)
COc1ccc(NC(=O)c2cn3ccsc3n2)cc1C(=O)NCCCN [Ligand L37, 5-(Imidazo[2,1-b]thiazol-6-yl)carboxamido-2-methoxybenzoic acid N-(3-aminopropyl)amide] | more than 90% | more than 90%
COc1ccc(NC(=O)c2nn(C)c3ccccc23)cc1C(=O)NCCCN [Ligand L27, 2-Methoxy-5-(1-methylindazol-3-yl)carboxamidobenzoic acid N-(3-aminopropyl)amide] | more than 90% | more than 90%
COc1ccc(NC(=O)c2onc3ccccc23)cc1C(=O)NCCCN [Ligand L31, 5-(Benzo[c]isoxazol-3-yl)carboxamido-2-methoxybenzoic acid N-(3-aminopropyl)amide] | more than 90% | more than 90%
COc1ccc(NC(=O)c2cc(-c3ccco3)n(C)n2)cc1C(=O)NCCCN [Ligand L1, 5-[5-(2-Furyl)-1-methylpyrazol-3-yl]carboxamido-2-methoxybenzoic acid N-(3-aminopropyl)amide] | more than 90% | more than 90%

Reference: patent publication US20130131321A1, “LIGANDS FOR ANTIBODY AND Fc-FUSION PROTEIN PURIFICATION BY AFFINITY CHROMATOGRAPHY” (GRAFFINITY PHARMACEUTICALS GMBH, priority 2010, published 2013)
